Test results published in PubChem BioAssay AID330 (DTP/NCI, 2004).
The list shows only some results of the screen, not a fair sample: it is rich in T/C values a quarter to a half above the control, in often repeated tests (any T/C) and in doses without a T/C. Other doses and runs of a compound stand elsewhere. T/C gives the treated animals as a percentage of the vehicle group. Some entries give survivors of the animals treated and no T/C: the source files T/C as zero there, which appears to mark a toxic dose or a test without result, not a measured value. Some survivor counts are full or nearly so, which does not show that the dose was tolerated: survival well below the control is almost never listed, so the zero probably covers shortened survival too. Survivors were counted at the toxicity check, usually on the fifth day, unless a day is given; later deaths do not show. Schedule codes are those of the source, read here as Q, the interval in days (D) or hours (H), X, the number of doses. Some entries hold several experiments; their values stand side by side, smallest first. For survival time, the PubChem record calls one and a half times the control and up active, and a quarter to a half above the control has no call in these data; cut-offs in other NCI protocols can differ. Some T/C values are followed by the survivors on the day toxicity was checked, most often the fifth; where none is given, no animal had died by that day.

System: P388 leukemia ip, CD2F1 mice, survival T/C
Experiment: NCI In Vivo Anticancer Drug Screen. Data for tumor model P388 Leukemia (intraperitoneal) in CD2F1 (CDF1) mice
Settings: T/C endpoint: median survival time, higher T/C = longer survival
[1] = dose: 100.0 mg/kg/injection, schedule: Q01DX009 (ip), vehicle: saline with Tween-80
[2] = dose: 200.0 mg/kg/injection, schedule: Q01DX009 (ip), vehicle: saline with Tween-80
[3] = dose: 200.0 mg/kg/injection, schedule: Q01DX005 (ip), vehicle: saline with Tween-80
[4] = dose: 100.0 mg/kg/injection, schedule: Q01DX009 (ip), vehicle: saline
[5] = dose: 200.0 mg/kg/injection, schedule: Q01DX009 (ip), vehicle: saline
[6] = dose: 400.0 mg/kg/injection, schedule: Q01DX009 (ip), vehicle: saline
[7] = dose: 600.0 mg/kg/injection, schedule: Q01DX009 (ip), vehicle: saline
[8] = dose: 50.0 mg/kg/injection, schedule: Q01DX009 (ip), vehicle: saline with Tween-80
[9] = dose: 240.0 mg/kg/injection, schedule: Q01DX005 (ip), vehicle: Klucel (hydroxypropylcellulose) (HPC)
[10] = dose: 200.0 mg/kg/injection, schedule: Q01DX005 (ip), vehicle: Klucel (hydroxypropylcellulose) (HPC)
[11] = dose: 100.0 mg/kg/injection, schedule: Q01DX005 (ip), vehicle: saline
[12] = dose: 200.0 mg/kg/injection, schedule: Q01DX005 (ip), vehicle: saline
[13] = dose: 100.0 mg/kg/injection, schedule: Q01DX005 (ip), vehicle: saline with Tween-80
[14] = dose: 50.0 mg/kg/injection, schedule: Q01DX005 (ip), vehicle: Klucel (hydroxypropylcellulose) (HPC)
[15] = dose: 100.0 mg/kg/injection, schedule: Q01DX005 (ip), vehicle: Klucel (hydroxypropylcellulose) (HPC)

For `CCOC(=O)N1C(C(=O)c2ccc(C)cc2)N(C2CCCCC2)C(c2ccccc2)N1C(=O)OCC` (stereo unspecified), the survivor count [1] was 6 of 6 and the survivor count [2] was 6 of 6.

`Cc1oc2c(C)c3oc(=O)cc(C)c3cc2c1CN` was tested, and the survivor count (dose: 50.0 mg/kg/injection, schedule: Q01DX001 (ip), vehicle: Klucel (hydroxypropylcellulose) (HPC)) was 1 of 6.

For `c1ccc([C@H]2N[C@@H]2c2ccccn2)cc1`, the survivor count [3] was 3 of 6.

`CC(C)(C)c1ccc(O)c(O)c1` was tested, and the survivor count [4] was 2 of 6 and 5 of 6, the survivor count [5] was 0 of 6 and the survivor count [6] was 0 of 6. The survivor count [7] was 0 of 6.

With `CCCCCCCCCCCCCCCC(=O)N(CCCCN(CCCN(C)C)C(=O)CCCCCCCCCCCCCCC)CCCN(C)C` the survivor count [8] was 4 of 6.

With `O=C(O)C(=O)O.O=N[O-].[Co+3].[NH-]CC[N-]CC[NH-]` the survivor count [1] was 4 of 6.

`Cc1cc2c(cc1C)NC1=C(N2)OC(c2ccc3c(c2)OCO3)C1=O` (stereo unspecified) was tested, and the survivor count [9] was 2 of 6.

In the case of `CCN(CC)CCOC(=O)C(OCC(C)C)(c1ccccc1)c1ccccc1`, the survivor count [10] is reported as 0 of 6.

`O=S(=O)(c1ccccc1)N1CN2CCN(C2)C1` was tested, and the T/C [1] was 139 % of control [5 of 6 alive].

With `CC(C)CC[NH-].CC(C)CC[NH-].[Cl][Pt+2]([Cl])([Cl])[Cl]` the T/C (dose: 12.5 mg/kg/injection, schedule: Q01DX009 (ip), vehicle: saline with Tween-80) was 128 % of control, the T/C (dose: 25.0 mg/kg/injection, schedule: Q01DX009 (ip), vehicle: saline with Tween-80) was 146 % of control and the T/C [8] was 146 % of control. The survivor count [2] was 3 of 3.

With `CN(C)C12CCCCCC1S(=O)(=O)C2` (stereo unspecified) the survivor count [2] was 3 of 6.

`CC(C)NC(=O)c1ccc(C/[N+]([O-])=C/c2ccccc2)cc1` was tested, and the T/C (dose: 400.0 mg/kg/injection, schedule: Q01DX009 (ip), vehicle: other) was 129 % of control, the survivor count (dose: 800.0 mg/kg/injection, schedule: Q01DX009 (ip), vehicle: distilled water + Tween-80) was 1 of 4 and 3 of 5 and the survivor count (dose: 1600.0 mg/kg/injection, schedule: Q01DX009 (ip), vehicle: distilled water + Tween-80) was 0 of 4.

With `COc1cc(/C=C2\SC(=S)N(C3CC3)C2=O)ccc1O` the survivor count (dose: 50.0 mg/kg/injection, schedule: Q01DX009 (ip), vehicle: saline) was 6 of 6 and the survivor count [4] was 6 of 6.

`COc1ccc(CN)cc1OC` was tested, and the survivor count [6] was 4 of 6 and the survivor count [7] was 0 of 6.

With `CC/C(=C(\CC)c1ccc(OCCN(C)C)cc1)c1ccc(OCCN(C)C)cc1` the survivor count (dose: 25.0 mg/kg/injection, schedule: Q01DX005 (ip), vehicle: saline) was 3 of 6, the survivor count (dose: 50.0 mg/kg/injection, schedule: Q01DX005 (ip), vehicle: saline) was 0 of 6 and the survivor count [11] was 0 of 6. For the same compound, the survivor count [12] was 0 of 6.

For `C/C(CCl)=N\NC1=NC(C)(CCl)P(=O)(NNc2ncccn2)S1` (stereo unspecified), the T/C (dose: 15.0 mg/kg/injection, schedule: Q01DX005 (ip), vehicle: saline) was 129 % of control, the survivor count (dose: 120.0 mg/kg/injection, schedule: Q01DX005 (ip), vehicle: saline) was 3 of 6 and the survivor count (dose: 240.0 mg/kg/injection, schedule: Q01DX005 (ip), vehicle: saline) was 0 of 6.

With `ClCCN1c2ccc3ccccc3c2Sc2ccc3ccccc3c21` the survivor count [3] was 6 of 6.

In the case of `COC(=O)[C@H](NC(=O)c1ccccc1)[C@@H](O)/C=C/c1ccccc1`, the survivor count [13] is reported as 6 of 6.

For `Cc1c(N)nc(C(CC(N)=O)NCC(N)C(N)=O)nc1C(=O)NC(C(=O)NC(C)C(O)C(C)C(=O)NC(C(=O)NCCc1nc(-c2nc(C(=O)NCCCNC(C)c3ccccc3)cs2)cs1)C(C)O)C(OC1OC(CO)C(O)C(O)C1OC1OC(CO)C(O)C(OC(N)=O)C1O)c1cnc[nH]1` (stereo unspecified), the T/C (dose: 2.0 mg/kg/injection, schedule: Q01DX009 (ip), vehicle: water) was 127 % of control.

For `CCN1C(=O)CC([Se]c2ccccc2)C1=O` (stereo unspecified), the survivor count (dose: 200.0 mg/kg/injection, schedule: Q04DX003 (ip), vehicle: Klucel (hydroxypropylcellulose) (HPC)) was 1 of 6 and 2 of 6 and the survivor count (dose: 400.0 mg/kg/injection, schedule: Q04DX003 (ip), vehicle: Klucel (hydroxypropylcellulose) (HPC)) was 0 of 6.

In the case of `Cc1ccc(C2(C)OC(CCl)CS2)c(C)c1` (stereo unspecified), the T/C [1] is reported as 129 % of control.

`O=C(Nc1ccc(C2=NCCCN2)cc1)c1ccc(C(=O)Nc2ccc(C3=NCCCN3)cc2)nc1` was tested, and the T/C (dose: 5.0 mg/kg/injection, schedule: Q01DX009 (ip), vehicle: saline) was 127 % of control, the T/C (dose: 10.0 mg/kg/injection, schedule: Q01DX009 (ip), vehicle: saline) was 145 % of control and the survivor count (dose: 20.0 mg/kg/injection, schedule: Q04DX003 (ip), vehicle: saline) was 3 of 6. The survivor count (dose: 100.0 mg/kg/injection, schedule: Q04DX003 (ip), vehicle: saline) was 0 of 6, the survivor count (dose: 200.0 mg/kg/injection, schedule: Q04DX003 (ip), vehicle: saline) was 0 of 6 and the survivor count (dose: 400.0 mg/kg/injection, schedule: Q04DX003 (ip), vehicle: saline) was 0 of 6.

`C[CH2][Sn]([Br])([c]1ccccc1)[c]1ccccc1CN(C)C` (stereo unspecified) was tested, and the survivor count [5] was 5 of 6.

`CC12Cc3cnoc3C=C1CCC1C2CCC2(C)C1CCC2(C)O` (stereo unspecified) was tested, and the survivor count [3] was 6 of 6.

For `C/C(=N\NC(=S)N1CC2CCC(CC2)C1)c1nccs1`, the T/C (dose: 25.0 mg/kg/injection, schedule: Q01DX005 (ip), vehicle: saline with Tween-80) was 132 % of control, the T/C (dose: 50.0 mg/kg/injection, schedule: Q01DX005 (ip), vehicle: saline with Tween-80) was 134 % of control and the survivor count [13] was 4 of 6 and 6 of 6. The survivor count [3] was 1 of 6.

`CC(C)=CCC/C(C)=C\CN(C)C` was tested, and the survivor count (dose: 100.0 mg/kg/injection, schedule: Q04DX002 (ip), vehicle: saline with Tween-80) was 1 of 6, the survivor count (dose: 200.0 mg/kg/injection, schedule: Q04DX002 (ip), vehicle: saline with Tween-80) was 1 of 6 and the survivor count (dose: 400.0 mg/kg/injection, schedule: Q04DX002 (ip), vehicle: saline with Tween-80) was 1 of 6.

`S=C(NNc1nnc(-c2ccccc2)c(-c2ccccc2)n1)NC1CCCCC1` was tested, and the survivor count [3] was 6 of 6.

With `CCOC(=O)C1=C(C(C)=O)C(c2ccc([N+](=O)[O-])cc2)C(C(C)=O)=C(C(=O)OCC)N1` the survivor count (dose: 60.0 mg/kg/injection, schedule: Q01DX005 (ip), vehicle: Klucel (hydroxypropylcellulose) (HPC)) was 1 of 6, the survivor count (dose: 120.0 mg/kg/injection, schedule: Q01DX005 (ip), vehicle: Klucel (hydroxypropylcellulose) (HPC)) was 0 of 6 and the survivor count [9] was 0 of 6.

For `O=C1C(CCl)=CS(=O)(=O)c2ccccc21`, the survivor count [14] was 2 of 6, the survivor count [15] was 0 of 6 and the survivor count [10] was 0 of 6.

With `C=C1C(=O)OC2/C=C(\C)C(=O)CC3OC(C)(C)OC3(C)CC(OC(=O)/C(C)=C/C)C12` (stereo unspecified) the survivor count (dose: 80.0 mg/kg/injection, schedule: Q01DX009 (ip), vehicle: saline with Tween-80) was 6 of 6.

In the case of `CN(C)CCN(Cc1ccccc1)c1ccc2ccccc2n1`, the survivor count [14] is reported as 3 of 5, the survivor count [15] is reported as 0 of 5 and the survivor count [10] is reported as 0 of 5.

With `N=C(N)c1ccc(N=Nc2cc(/C=C/c3ccccc3)ccc2O)cc1` the survivor count [10] was 0 of 6.

In the case of `COc1cc2c(cc1OC(C)=O)C(=O)C(Br)(Br)CCC2`, the T/C [1] is reported as 127 % of control.

`CCOc1ccc(C[Se][Se]Cc2ccc(OCC)cc2)cc1` was tested, and the survivor count (dose: 200.0 mg/kg/injection, schedule: Q01DX009 (ip), vehicle: Klucel (hydroxypropylcellulose) (HPC)) was 0 of 6.

With `CC(C)(Br)C(=O)/C=C/c1ccccc1` the survivor count (dose: 240.0 mg/kg/injection, schedule: Q01DX005 (ip), vehicle: saline with Tween-80) was 2 of 6.

In the case of `CC(=O)[O][Hg][c]1cc(-c2ccc(N=Nc3c(S(=O)(=O)O)cc4cccc(N)c4c3O)cc2)ccc1N=Nc1c(S(=O)(=O)O)cc2cccc(N)c2c1O`, the survivor count (dose: 12.5 mg/kg/injection, schedule: Q04DX003 (ip), vehicle: saline with Tween-80) is reported as 5 of 6.

`CCN(CC)CCCC(C)NC(=O)Nc1cc(OC)cc2cccnc12` (stereo unspecified) was tested, and the survivor count [11] was 3 of 5 and the survivor count [12] was 0 of 5.
